This series has as its target thrombospondin-1 (TSP-1) (UniProt P07996). Put plainly: activity in cells. The following applies: 2'-NH2 on all U and C, inhibition of TSP-1-induced HUVEC apoptosis, direct binding not measured, protein in cells.

Protein sequences, listed by entry. Tags and fused reporters are not part of them. Residues count along the entry.
UniProt P07996, 19-1170: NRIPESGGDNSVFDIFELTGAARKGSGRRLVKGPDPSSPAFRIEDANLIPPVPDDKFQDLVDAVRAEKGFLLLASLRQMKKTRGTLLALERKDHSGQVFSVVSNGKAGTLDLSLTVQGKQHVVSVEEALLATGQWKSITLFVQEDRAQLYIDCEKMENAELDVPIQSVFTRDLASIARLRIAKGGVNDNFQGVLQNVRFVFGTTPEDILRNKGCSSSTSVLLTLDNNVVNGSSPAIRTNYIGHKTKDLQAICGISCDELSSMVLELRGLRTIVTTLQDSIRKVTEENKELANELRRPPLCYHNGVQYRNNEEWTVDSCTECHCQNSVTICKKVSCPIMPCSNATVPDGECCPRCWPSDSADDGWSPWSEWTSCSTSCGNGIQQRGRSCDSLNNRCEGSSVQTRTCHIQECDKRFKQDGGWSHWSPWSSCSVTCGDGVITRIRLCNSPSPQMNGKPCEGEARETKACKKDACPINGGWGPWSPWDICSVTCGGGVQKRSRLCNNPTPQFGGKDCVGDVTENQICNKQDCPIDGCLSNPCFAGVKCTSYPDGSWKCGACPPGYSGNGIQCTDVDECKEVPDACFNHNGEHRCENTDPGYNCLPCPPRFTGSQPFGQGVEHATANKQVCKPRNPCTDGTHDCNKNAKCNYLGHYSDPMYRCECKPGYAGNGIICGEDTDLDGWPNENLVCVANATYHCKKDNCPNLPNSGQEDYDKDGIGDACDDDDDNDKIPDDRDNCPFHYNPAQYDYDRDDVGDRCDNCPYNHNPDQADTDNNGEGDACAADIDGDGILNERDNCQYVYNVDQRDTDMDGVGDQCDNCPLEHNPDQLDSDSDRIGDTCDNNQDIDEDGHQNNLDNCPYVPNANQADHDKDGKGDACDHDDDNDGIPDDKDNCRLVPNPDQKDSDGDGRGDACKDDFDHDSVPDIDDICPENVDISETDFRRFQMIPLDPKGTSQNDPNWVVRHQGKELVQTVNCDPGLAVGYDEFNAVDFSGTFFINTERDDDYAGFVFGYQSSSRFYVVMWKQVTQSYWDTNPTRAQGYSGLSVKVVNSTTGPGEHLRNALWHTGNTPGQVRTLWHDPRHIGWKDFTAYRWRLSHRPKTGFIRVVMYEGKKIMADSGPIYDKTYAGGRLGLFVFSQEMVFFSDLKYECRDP

As to “GGGAGACGAUAUUCGUCCAUCACCGGACGGGACCAGAGGUGCCGCUGUCCGACUGAAUUCUCGACC [aptamer 89]”, the functional effect of the aptamer runs as follows: (50 nM) 91.2 % inhibition; (150 nM, 72 h, 95.65% at 300 nM) 95.2 % inhibition.

The sequence “GGGAGACGAUAUUCGUCCAUCACCGGACGGGACCAGAGGUGCCGCUGUCCGACAUGGA [aptamer 89-2]” yielded a functional effect of the aptamer (50 nM, variant of aptamer 89) of 83.8 % inhibition.

Regarding “GGGAGACGAUAUUCGUCCAUCGGGAGCAGGGAAGGGGGCCGCUGUCCGACUGAAUUCUCGACC [aptamer 82]”, the functional effect of the aptamer (150 nM, 72 h, 79.32% at 300 nM) came out at 66 % inhibition.

(Values after US20070117768.)
